The values that follow are results of earlier work, collected in PMC9310824, “Alendronate modified mPEG-PLGA nano-micelle drug delivery system loaded with astragaloside has anti-osteoporotic effect in rats” (Drug Delivery, 2022).

SMILES strings stand for the structures.

For the data set the following is noted: ref Katsumi et al., 2015; cited from earlier work.

On to `NCCCC(O)(P(=O)(O)O)P(=O)(O)O` [Al, Alendronate], for which the bone uptake rate was 50%–60%.
